Assay results published in publication PMC10925046.

Legend:
Experiment in all cases: pull-down
LSD1 IDR (flag) = LSD1 IDR (flag) (UniProt O60341); conditions: pull-down: 20 mM Tris pH 7.5, 50 mM NaCl, 2 mM MgCl2, 0.1% Tween-20, 4 C; protein in a lysate after overexpression; residues 1-170; protein details: Flag; label: biotin (5' per name 52-Bio)
LSD1 deltaIDR (flag) = LSD1 deltaIDR (flag) (UniProt O60341); conditions: slightly less than full length; pull-down: 20 mM Tris pH 7.5, 50 mM NaCl, 2 mM MgCl2, 0.1% Tween-20, 4 C; protein in a lysate after overexpression; residues 171-852; protein details: Flag; label: biotin (5' per name 52-Bio)
[1] = molecular target: LSD1 deltaIDR 3KE (flag) K355E,K357E,K359E (UniProt O60341); conditions: pull-down: 20 mM Tris pH 7.5, 50 mM NaCl, 2 mM MgCl2, 0.1% Tween-20, 4 C; protein in a lysate after overexpression; residues 171-852; protein details: Flag; label: biotin (5' per name 52-Bio)
[2] = molecular target: LSD1 deltaIDR K661A (flag) (UniProt O60341); conditions: not as strong as WT; pull-down: 20 mM Tris pH 7.5, 50 mM NaCl, 2 mM MgCl2, 0.1% Tween-20, 4 C; protein in a lysate after overexpression; residues 171-852; protein details: Flag; label: biotin (5' per name 52-Bio)
LSD1 full length (flag) = LSD1 full length (flag) (UniProt O60341); conditions: pull-down: 20 mM Tris pH 7.5, 50 mM NaCl, 2 mM MgCl2, 0.1% Tween-20, 4 C; protein in a lysate after overexpression; residues 1-852; protein details: Flag; label: biotin (5' per name 52-Bio)

Sequence: UUAGGGUUAGGGUUAGGGUUAGGGUUAGGGUUAGGGUUAGGGUUAGGG [biotin-TERRA (UUAGGG)8]
- binding result (LSD1 IDR (flag)): no binding
- binding result (LSD1 deltaIDR (flag)): binds more weakly
- binding result [1]: no binding
- binding result [2]: binds more weakly
- binding result (LSD1 full length (flag)): binds

At least one result comes from cells or an extract, where the contact may be indirect. For some assays here: A negative result means that nothing was seen under these conditions. For some assays here: Construct, isoform or probe ends are uncertain for at least one entry. For some assays here: Weaker means in comparison with the reference protein, sequence or condition of that experiment.
